Values quoted from earlier work, collected in US9682037B2, “Non-mucoadhesive film dosage forms” (APR APPLIED PHARMA RESEARCH S.A., priority 2006, dated 2017).

Absolute Bioavailability (in vivo): Absolute Bioavailability = ca. 100%
Tmax (in vivo): Tmax = 3-4 Hours hours
Effect of food on absorption (result in words): Neither food nor time of administration
Compound: COc1cc2c(cc1OC)C(=O)C(CC1CCN(Cc3ccccc3)CC1)C2.Cl (racemic) [Donepezil HCl, (±) 2,3-dihydro-5,6-dimethoxy-2-[[1-(phenylmethyl)-4-piperidinyl]methyl]-1H-inden-1-one hydrochloride]
Linearity / dose proportionality of pharmacokinetics (result in words): Linear Pharmacokinetics over 1-10 mg dose
